Results are given in words; binding and its absence hold for the method and conditions named. Binding seen in cells or lysates may run through a third protein. Binding can be weak; no strength is given. Sequences can lack the tags named with a protein.
Molecular target: EGFP::HPO-11 (C. elegans)
Experiment: co-IP

binding: binds
B1: SMG-2::V5::6xHis (protein, UniProt O76512 1-1069)
chain: MDDSDDEYSRSHGETLTFVDPEDDGVSIGNTQDSQFAYEQFSVPTQSSQATDLLPGGTDGTTNDLPFHDVEDDESDSEKSLTEEQHEQKLPEHACRYCGISDPLCVAKCTVCRKWFCNSNDGTSGGHIVHHMVRSQHKEAYTHKDSPCGDTQLECYRCGSKNVFNLGFIPGKKDQVVVIICRTPCASIAFQNDDNWSPEDWKSVIAEKQLLSWIVNVPSEEQVARARKITATQAVRMEELWRDHPEATVDDLNKPGLDREPDHVQLRYVDAHHYSKVFRPLVAIEAEYDRRVKESASQAVGTVRWEQGLRQSVLAFFHLPQFADGVMKLAKGDELRLKHSQTVDGSEWTKIGSVFKIPDNHGDEVGIEIRGAVDKSVMESRIMFTVDVVWNATTFERQYKALAALLNDSKAISPYLYQKLLGHPAEEMMLKFDLPRRLSVAGLPELNSSQMQAVKQVLTRPLSLIQGPPGTGKTVVSATIVYHLVQKTEGNVLVCSPSNIAVDHLAEKIHKTGLKVVRLCARSREHSETTVPYLTLQHQLKVMGGAELQKLIQLKDEAGELEFKDDLRYMQLKRVKEHELLAAADVICCTCSSAADARLSKIRTRTVLIDESTQATEPEILVSIMRGVRQLVLVGDHCQLGPVVICKKAAIAGLSQSLFERLVLLGIRPFRLQVQYRMHPVLSEFPSNVFYDGSLQNGVTENDRHMTGVDWHWPKPNKPAFFWHCSGSEELSASGTSFLNRTEAANVEKLVSKLIKAGVQPHQIGVITSYEGQRSFIVNYMHTQGTLNSKLYENVEIASVDAFQGREKDYIIVTCVRSNDILGIGFLSDPRRLNVAITRAKYGLVLVGNAKVLARHDLWHELINHYKSKEMLYEGPINALKPLNLALPKATIRTKNNIAGNANRFGIKRMQYTFNEYKSNDPSQPRLPPTYSNSQNLLSMSKLAQTFNKNVPIPAHMMDPNVYAAARNQKDRRRGDQRRPPPQAEAAMDLSQGMMSQQSQQYPPQGASSQSQYLLDGASSLSGWSQSQTTTTTTRHHHHRQNRNSQQQMSQDMDDIQQKMDDLLFSQDC

Reference: publication doi:10.1101/2022.09.04.506508
